From article PMC2740868 come the findings set out here.

The chains behind the UniProt entries cited, without tags or fusion partners. Where a name states a change or a piece, a line headed by the entry shows the natural chain unless it says otherwise.
UniProt P84022: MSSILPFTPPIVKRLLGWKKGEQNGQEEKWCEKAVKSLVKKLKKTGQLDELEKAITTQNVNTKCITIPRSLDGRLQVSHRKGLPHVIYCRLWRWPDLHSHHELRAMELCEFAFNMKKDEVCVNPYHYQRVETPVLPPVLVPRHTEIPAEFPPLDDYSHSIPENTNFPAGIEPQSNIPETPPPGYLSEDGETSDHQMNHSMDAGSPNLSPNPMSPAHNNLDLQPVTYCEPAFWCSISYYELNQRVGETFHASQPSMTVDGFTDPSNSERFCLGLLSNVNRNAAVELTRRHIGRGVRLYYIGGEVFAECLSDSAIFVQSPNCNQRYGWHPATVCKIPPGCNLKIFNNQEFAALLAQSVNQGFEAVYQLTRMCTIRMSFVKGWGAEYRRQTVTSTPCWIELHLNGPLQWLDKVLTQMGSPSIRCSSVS

These are yes or no findings as the source states them, for the method shown. In cells and extracts the contact can be indirect. Some results given as binding are weak or reduced against the parent protein; the word gives no strength. For part of these data: Tags and fused reporters may be left off the sequences shown.

Assay [1] deals with T1, GST-BRCA1 (298–436aa) (human) (UniProt P38398).
T1 sequence: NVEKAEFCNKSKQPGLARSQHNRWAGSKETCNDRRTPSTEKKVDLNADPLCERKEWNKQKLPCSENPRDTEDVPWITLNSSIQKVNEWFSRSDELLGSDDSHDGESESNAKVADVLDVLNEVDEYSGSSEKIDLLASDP
Description: pull-down; 10 µg bacterially-purified GST-BRCA1 protein fragments with total lysates of HEK293T cells transfected with Flag-Smad3 constructs; only the target purified.

A further assay addresses Flag-Smad3 (UniProt P84022). As to the kind of experiment: co-IP; HEK293T cells co-transfected with HA-BRCA1 constructs and Flag-Smad3; total cell lysates, immunoprecipitation and Western blotting with anti-Flag and anti-HA monoclonal antibodies.

For Flag-Smad3 (from UniProt P84022 1-425), the binding result in assay [1] is reported as “binds”.

Regarding “Flag-Smad3C (MH2 domain, from 207 to 426aa) (from UniProt P84022 207-425) (domain or fragment)”, the binding entry in assay [1] was “binds”.

As to “HA-BRCA1 (1–683aa) (from UniProt P38398 1-683) (domain or fragment)”, the binding entry in the assay with Flag-Smad3 is “binds”.
